Test results: publication PMC10812620
These are yes or no findings as the source states them, for the method shown. In cells and extracts the contact can be indirect. A result given as binding can be weak or reduced; the word gives no strength.

Experiments:
[1] = biological target: T1, protein kinase C iota (PKCiota) (human (endogenous in KYSE510 and KYSE450)) (UniProt P41743); experiment: co-IP; endogenous proteins; KYSE510 and KYSE450 cells lysed in non-denaturing IP lysis buffer, 1 h at 4 °C; pre-cleared with protein G-agarose; immunoprecipitation with rabbit anti-PKCiota (Proteintech 13883-1-AP) or rabbit anti-GPX4 (Abcam ab125066) antibody; Western blot
T1 sequence: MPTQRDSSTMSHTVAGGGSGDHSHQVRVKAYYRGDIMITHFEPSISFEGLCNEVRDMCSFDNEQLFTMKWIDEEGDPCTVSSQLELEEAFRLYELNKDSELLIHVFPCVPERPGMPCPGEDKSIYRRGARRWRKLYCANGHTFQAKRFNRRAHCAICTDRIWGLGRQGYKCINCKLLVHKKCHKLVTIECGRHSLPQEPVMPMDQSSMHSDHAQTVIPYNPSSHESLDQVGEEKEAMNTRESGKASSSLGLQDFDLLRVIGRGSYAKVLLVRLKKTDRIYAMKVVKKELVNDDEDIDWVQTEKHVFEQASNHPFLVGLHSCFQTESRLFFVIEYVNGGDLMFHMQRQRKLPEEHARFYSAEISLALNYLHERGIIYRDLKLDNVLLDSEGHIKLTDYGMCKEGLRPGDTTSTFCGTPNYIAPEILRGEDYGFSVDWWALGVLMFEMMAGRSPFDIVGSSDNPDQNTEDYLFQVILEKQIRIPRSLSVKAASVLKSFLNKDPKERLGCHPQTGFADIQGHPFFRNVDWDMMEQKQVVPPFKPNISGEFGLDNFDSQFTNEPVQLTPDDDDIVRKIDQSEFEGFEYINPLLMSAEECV

[2] = biological target: T1, protein kinase C iota (PKCiota) (human (endogenous in KYSE510 and KYSE450)); experiment: proximity ligation; Duolink In situ Red kit on fixed (4% paraformaldehyde), permeabilised cells; anti-GPX4 (Abcam ab125066) and anti-PKCiota (BD Biosciences 610175) antibodies overnight at 4 °C; confocal microscopy

## Glutathione peroxidase 4 (GPX4)
[1]
  binding: binds
[2]
  binding: binds
